Reference: the supplement of paper PMC10849652
The other results are listed elsewhere or left out.

Sequences of proteins named here, by UniProt entry; tags and fusion partners are left off. A change or cut given only in a name is not applied to a line headed by its entry.
UniProt Q19AV6: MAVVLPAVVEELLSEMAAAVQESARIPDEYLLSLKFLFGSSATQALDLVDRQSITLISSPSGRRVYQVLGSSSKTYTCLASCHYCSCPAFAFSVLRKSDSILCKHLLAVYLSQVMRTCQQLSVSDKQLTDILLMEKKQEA
UniProt Q9Y5A6: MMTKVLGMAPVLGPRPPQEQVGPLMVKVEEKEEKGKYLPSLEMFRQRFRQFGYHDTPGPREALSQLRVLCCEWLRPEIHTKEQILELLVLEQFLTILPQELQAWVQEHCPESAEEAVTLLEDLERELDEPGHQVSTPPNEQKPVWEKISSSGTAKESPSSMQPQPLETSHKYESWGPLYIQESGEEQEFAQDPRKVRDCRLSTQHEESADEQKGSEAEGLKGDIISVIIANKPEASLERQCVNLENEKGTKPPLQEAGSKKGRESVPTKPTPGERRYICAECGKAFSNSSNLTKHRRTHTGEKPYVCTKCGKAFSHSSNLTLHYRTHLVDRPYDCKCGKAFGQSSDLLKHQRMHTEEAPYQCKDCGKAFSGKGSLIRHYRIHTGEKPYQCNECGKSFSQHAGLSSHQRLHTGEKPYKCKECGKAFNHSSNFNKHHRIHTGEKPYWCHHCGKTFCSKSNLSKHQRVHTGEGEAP
UniProt Q8N4W9: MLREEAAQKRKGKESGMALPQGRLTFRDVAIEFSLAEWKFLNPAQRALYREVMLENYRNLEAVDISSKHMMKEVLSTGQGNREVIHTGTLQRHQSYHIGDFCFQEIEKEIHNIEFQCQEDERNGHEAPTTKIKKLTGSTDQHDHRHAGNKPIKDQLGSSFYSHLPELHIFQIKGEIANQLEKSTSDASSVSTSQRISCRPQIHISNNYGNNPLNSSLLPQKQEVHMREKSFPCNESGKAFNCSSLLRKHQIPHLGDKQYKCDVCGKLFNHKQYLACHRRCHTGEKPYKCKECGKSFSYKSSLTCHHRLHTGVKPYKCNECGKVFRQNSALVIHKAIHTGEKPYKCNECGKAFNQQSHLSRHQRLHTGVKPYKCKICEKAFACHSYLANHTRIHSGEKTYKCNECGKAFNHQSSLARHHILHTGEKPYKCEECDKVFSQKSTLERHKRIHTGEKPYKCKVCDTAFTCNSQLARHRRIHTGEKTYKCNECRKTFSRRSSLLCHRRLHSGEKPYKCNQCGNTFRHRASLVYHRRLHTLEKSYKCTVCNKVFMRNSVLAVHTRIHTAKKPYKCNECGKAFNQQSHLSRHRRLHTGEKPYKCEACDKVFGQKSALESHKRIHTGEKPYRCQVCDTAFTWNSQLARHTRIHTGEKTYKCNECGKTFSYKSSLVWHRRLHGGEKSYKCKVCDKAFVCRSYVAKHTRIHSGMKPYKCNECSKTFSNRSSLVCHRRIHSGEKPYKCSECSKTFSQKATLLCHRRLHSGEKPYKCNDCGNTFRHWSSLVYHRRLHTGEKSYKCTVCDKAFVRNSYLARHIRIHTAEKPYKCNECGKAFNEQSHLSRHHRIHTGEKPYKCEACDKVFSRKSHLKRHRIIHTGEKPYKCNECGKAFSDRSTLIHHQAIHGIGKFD
UniProt Q15072: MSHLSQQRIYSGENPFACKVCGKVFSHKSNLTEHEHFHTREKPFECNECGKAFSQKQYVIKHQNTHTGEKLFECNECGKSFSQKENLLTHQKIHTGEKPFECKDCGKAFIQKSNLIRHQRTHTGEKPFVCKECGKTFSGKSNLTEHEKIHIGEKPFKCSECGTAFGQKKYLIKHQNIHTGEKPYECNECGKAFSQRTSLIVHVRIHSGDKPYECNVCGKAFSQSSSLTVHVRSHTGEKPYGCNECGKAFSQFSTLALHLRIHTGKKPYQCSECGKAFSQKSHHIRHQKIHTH
UniProt Q6ZN06: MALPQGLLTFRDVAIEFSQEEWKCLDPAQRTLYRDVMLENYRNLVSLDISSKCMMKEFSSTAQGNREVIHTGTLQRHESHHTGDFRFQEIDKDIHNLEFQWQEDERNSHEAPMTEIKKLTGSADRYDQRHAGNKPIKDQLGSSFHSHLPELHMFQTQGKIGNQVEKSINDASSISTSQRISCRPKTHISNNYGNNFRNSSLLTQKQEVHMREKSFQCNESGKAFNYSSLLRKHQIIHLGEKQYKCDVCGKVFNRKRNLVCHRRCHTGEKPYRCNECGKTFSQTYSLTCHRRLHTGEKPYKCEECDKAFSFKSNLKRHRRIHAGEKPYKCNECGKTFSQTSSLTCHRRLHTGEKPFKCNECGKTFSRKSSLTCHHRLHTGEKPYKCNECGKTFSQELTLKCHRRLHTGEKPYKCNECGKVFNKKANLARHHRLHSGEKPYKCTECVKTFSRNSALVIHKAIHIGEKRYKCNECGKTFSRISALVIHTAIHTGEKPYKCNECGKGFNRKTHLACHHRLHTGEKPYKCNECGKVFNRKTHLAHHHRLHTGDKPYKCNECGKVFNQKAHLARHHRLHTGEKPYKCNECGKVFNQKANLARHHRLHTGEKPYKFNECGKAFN
UniProt Q9Y2X9: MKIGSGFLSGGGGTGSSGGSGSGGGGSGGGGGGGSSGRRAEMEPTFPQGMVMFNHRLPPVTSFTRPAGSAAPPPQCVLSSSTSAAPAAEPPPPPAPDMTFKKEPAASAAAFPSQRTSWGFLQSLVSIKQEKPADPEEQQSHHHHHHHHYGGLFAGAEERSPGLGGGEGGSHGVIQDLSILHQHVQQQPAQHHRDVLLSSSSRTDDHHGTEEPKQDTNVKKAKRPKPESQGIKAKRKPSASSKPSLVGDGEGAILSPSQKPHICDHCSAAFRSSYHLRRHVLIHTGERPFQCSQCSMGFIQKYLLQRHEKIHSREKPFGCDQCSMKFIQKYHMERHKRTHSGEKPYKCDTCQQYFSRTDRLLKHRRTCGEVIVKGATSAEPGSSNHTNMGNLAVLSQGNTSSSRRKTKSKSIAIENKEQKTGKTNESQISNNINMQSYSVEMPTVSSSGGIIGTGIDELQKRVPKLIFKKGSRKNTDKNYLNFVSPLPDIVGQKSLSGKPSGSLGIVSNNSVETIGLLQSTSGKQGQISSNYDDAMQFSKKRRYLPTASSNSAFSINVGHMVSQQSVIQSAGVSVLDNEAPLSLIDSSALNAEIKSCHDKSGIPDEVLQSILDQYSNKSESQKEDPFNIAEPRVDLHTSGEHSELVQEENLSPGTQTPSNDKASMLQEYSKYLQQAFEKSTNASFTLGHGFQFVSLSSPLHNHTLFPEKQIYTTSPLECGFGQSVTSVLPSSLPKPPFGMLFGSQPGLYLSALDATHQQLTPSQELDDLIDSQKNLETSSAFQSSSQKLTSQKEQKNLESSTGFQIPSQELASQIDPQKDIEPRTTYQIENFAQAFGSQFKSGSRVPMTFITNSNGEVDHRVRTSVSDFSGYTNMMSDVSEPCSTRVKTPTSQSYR
UniProt Q15696: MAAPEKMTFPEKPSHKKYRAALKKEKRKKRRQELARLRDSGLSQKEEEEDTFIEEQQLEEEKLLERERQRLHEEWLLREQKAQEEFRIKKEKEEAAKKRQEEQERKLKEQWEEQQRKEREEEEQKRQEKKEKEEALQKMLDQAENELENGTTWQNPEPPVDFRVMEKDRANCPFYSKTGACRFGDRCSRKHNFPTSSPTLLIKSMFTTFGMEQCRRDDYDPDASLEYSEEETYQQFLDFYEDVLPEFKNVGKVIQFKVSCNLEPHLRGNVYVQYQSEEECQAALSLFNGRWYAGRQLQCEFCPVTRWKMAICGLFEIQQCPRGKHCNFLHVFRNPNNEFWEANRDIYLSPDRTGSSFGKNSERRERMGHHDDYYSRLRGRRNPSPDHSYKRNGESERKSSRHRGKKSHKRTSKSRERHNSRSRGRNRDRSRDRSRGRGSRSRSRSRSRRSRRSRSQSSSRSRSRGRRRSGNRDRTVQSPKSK
UniProt Q99676: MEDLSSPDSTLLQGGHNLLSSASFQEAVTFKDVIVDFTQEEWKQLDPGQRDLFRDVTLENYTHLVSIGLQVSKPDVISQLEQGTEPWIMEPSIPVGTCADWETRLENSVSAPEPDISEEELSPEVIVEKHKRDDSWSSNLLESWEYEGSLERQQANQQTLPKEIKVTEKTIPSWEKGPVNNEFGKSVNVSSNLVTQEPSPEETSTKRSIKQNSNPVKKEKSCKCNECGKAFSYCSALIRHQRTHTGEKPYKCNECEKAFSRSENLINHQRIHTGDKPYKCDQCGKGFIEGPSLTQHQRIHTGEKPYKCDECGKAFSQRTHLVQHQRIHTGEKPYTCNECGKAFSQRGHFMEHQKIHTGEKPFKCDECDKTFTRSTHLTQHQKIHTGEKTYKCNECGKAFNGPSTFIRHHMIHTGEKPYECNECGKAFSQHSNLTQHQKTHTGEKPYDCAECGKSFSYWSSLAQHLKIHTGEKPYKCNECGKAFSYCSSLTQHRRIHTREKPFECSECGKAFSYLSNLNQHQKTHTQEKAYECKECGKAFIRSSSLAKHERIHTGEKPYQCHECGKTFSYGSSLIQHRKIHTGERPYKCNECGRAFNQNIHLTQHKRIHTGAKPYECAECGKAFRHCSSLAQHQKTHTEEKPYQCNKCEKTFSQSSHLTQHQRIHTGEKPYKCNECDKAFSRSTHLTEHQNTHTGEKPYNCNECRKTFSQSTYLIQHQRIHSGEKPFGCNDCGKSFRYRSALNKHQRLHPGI
UniProt Q9P1U0, whole entry, looked up: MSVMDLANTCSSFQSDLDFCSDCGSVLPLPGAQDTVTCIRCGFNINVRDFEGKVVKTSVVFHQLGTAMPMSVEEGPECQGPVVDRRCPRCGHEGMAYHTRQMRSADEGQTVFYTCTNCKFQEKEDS
UniProt Q6NSZ9: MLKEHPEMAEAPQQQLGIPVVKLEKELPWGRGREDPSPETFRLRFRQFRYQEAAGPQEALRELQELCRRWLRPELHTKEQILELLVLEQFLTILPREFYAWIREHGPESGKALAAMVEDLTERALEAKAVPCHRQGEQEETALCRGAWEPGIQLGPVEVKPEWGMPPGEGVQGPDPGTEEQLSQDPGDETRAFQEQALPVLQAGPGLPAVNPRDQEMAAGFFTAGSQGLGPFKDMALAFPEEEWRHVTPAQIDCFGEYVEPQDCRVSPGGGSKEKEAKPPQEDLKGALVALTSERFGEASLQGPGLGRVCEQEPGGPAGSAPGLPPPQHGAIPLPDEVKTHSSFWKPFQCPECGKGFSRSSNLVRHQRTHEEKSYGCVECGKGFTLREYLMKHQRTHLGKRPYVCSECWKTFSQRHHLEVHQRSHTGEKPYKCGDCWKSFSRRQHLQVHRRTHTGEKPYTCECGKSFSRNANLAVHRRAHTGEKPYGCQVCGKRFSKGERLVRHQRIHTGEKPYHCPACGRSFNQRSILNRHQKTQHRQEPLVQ
UniProt Q5BKZ1: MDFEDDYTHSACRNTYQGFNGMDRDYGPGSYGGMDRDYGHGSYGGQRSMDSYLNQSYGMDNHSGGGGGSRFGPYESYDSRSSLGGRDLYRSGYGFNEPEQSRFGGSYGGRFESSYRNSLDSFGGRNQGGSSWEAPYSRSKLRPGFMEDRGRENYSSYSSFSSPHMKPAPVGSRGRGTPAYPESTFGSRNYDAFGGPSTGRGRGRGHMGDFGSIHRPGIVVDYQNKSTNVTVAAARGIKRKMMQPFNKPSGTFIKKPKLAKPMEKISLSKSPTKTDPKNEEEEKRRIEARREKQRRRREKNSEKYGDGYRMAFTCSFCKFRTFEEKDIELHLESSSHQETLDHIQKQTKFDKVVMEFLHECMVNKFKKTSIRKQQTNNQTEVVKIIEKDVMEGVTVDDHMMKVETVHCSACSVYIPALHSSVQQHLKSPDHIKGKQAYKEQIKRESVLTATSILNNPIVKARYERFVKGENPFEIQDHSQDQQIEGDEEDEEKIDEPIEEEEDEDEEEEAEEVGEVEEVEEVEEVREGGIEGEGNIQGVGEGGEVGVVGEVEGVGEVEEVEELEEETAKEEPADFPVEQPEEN
UniProt Q8TF50: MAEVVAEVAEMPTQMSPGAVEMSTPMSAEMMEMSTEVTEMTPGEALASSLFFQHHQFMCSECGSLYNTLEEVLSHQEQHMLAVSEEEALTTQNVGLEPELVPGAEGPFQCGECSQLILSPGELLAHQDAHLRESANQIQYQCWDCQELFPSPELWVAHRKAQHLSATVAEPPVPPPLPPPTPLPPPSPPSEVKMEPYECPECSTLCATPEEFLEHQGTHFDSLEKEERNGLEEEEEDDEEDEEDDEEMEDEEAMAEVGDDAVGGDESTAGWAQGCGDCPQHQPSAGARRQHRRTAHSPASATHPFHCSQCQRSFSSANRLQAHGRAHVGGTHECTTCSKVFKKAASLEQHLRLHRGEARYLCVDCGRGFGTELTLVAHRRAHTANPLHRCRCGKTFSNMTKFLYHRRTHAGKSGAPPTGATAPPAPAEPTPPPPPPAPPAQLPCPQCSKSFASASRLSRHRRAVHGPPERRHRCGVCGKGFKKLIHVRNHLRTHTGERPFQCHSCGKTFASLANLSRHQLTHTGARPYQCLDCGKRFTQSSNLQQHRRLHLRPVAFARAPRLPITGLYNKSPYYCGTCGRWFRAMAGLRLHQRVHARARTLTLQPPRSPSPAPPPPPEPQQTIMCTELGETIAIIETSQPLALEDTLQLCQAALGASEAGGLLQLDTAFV

Legend:
Test in all cases: log2 fold change, soluble protein after heating vs DMSO (PISA); higher = thermal stabilisation; K562 lysate, 10 uM; active = over 0.2 and 3.5 SD of the protein, either way, in both replicates (recomputed)
crizotinib = compound: C[C@@H](Oc1cc(-c2cnn(C3CCNCC3)c2)cnc1N)c1c(Cl)ccc(F)c1Cl [crizotinib]
Method in brief: (§1)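 A 30 min treatment with 10 μM compound was applied to crude K562 extract at 1 mg/mL protein in PBS pH 7.4 with 1 mM MgCl2. Heating for 3 min spanned 48°C-58°C, after which aliquots were pooled, adjusted to 0.5% NP-40 at 4°C and spun at 21,000xg for 90 min. TMTpro 16plex LC-MS/MS of the supernatant, with channel sums equalised, gave values recorded as log-two fold change in thermal stability against solvent controls, from duplicates.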

tozasertib = compound: Cc1cc(Nc2cc(N3CCN(C)CC3)nc(Sc3ccc(NC(=O)C4CC4)cc3)n2)n[nH]1 [tozasertib]
Method in brief: as §1

doramapimod = compound: Cc1ccc(-n2nc(C(C)(C)C)cc2NC(=O)Nc2ccc(OCCN3CCOCC3)c3ccccc23)cc1 [doramapimod]
Method in brief: as §1

[1] = compound: C[C@H](C1=CC=C(C=C1)C(=O)NC2=C3C=CNC3=NC=C2)N
Method in brief: as §1

duvelisib = compound: C[C@H](Nc1ncnc2nc[nH]c12)c1cc2cccc(Cl)c2c(=O)n1-c1ccccc1 [duvelisib]
Method in brief: as §1

gandotinib = compound: Cc1cc(Nc2cc(CN3CCOCC3)c3nc(C)c(Cc4ccc(Cl)cc4F)n3n2)n[nH]1 [gandotinib]
Method in brief: as §1

[2] = compound: Cc1cccc(CC(=O)N2CCc3c2ccc(-c2cn(C)c4ncnc(N)c24)c3F)n1
Method in brief: as §1

Measured: log2 fold change

ZNF410 isoform 5 (UniProt Q86VK4)
inactive: crizotinib 0.051 | tozasertib 0.324 | doramapimod 0.015

ZSWIM7 (UniProt Q19AV6)
inactive: [1] -0.002 | duvelisib 0.018 | gandotinib 0.154 | [2] 0.016

ZNF708 (UniProt P17019)
inactive: tozasertib 0.099

ZSCAN21 (UniProt Q9Y5A6)
inactive: [1] -0.131 | gandotinib -0.108 | tozasertib -0.001 | [2] 0.068

ZNF808 (UniProt Q8N4W9)
inactive: crizotinib -0.149 | duvelisib 0.092 | doramapimod -0.043

ZNF655 isoform 2 (UniProt Q8N720)
inactive: [1] -0.09 | gandotinib -0.157 | [2] -0.046

ZNF280A (UniProt P59817)
inactive: crizotinib -0.108 | duvelisib 0.083 | doramapimod 0.337

ZNF146 (UniProt Q15072)
inactive: duvelisib -0.018

ZNF813 (UniProt Q6ZN06)
inactive: [1] 0.413 | duvelisib 0.008 | gandotinib -0.287 | [2] -0.078

ZNF770 (UniProt Q6IQ21)
inactive: crizotinib -0.197 | doramapimod 0.079

ZNF281 (UniProt Q9Y2X9)
inactive: crizotinib 0.003 | duvelisib 0.029 | doramapimod 0.02

ZRSR2 (UniProt Q15696)
inactive: crizotinib -0.051 | doramapimod -0.085

ZNF655 isoform 3 (UniProt Q8N720)
inactive: crizotinib -0.285 | tozasertib -0.11 | doramapimod 0.052

ZNF184 (UniProt Q99676)
inactive: crizotinib 0.025 | duvelisib 0.048 | doramapimod -0.21

ZUP1 (UniProt Q96AP4)
inactive: duvelisib -0.025

ZNRD1 (UniProt Q9P1U0)
inactive: [1] -0.008 | gandotinib 0.058 | [2] 0.19

ZNF639 (UniProt Q9UID6)
inactive: crizotinib -0.026 | [1] 0.032 | duvelisib 0.053 | gandotinib -0.064 | doramapimod -0.006 | [2] 0.055

Reprinted at random: 2 records from the list.
ZNF813 (UniProt Q6ZN06)
inactive: [1] 0.413 | duvelisib 0.008 | gandotinib -0.287 | [2] -0.078

ZSWIM7 (UniProt Q19AV6)
inactive: [1] -0.002 | duvelisib 0.018 | gandotinib 0.154 | [2] 0.016

Later entries:

ZSCAN25 (UniProt Q6NSZ9)
inactive: duvelisib -0.105

ZNF816 (UniProt Q0VGE8)
inactive: crizotinib 0.253 | doramapimod -0.229

ZNF326 (UniProt Q5BKZ1)
inactive: crizotinib -0.032 | [1] -0.014 | duvelisib 0.102 | gandotinib -0.012 | tozasertib -0.012 | doramapimod -0.023 | [2] -0.014

ZNF526 (UniProt Q8TF50)
inactive: [1] -0.124 | duvelisib 0.171 | gandotinib -0.062 | [2] -0.038
